# In the supplement of paper PMC6411743:
# Chains of the proteins cited; added tags and fusions are not shown. Lines headed by an entry give the natural chain unless they say otherwise; changes in a name come on top.
# UniProt Q86Y56: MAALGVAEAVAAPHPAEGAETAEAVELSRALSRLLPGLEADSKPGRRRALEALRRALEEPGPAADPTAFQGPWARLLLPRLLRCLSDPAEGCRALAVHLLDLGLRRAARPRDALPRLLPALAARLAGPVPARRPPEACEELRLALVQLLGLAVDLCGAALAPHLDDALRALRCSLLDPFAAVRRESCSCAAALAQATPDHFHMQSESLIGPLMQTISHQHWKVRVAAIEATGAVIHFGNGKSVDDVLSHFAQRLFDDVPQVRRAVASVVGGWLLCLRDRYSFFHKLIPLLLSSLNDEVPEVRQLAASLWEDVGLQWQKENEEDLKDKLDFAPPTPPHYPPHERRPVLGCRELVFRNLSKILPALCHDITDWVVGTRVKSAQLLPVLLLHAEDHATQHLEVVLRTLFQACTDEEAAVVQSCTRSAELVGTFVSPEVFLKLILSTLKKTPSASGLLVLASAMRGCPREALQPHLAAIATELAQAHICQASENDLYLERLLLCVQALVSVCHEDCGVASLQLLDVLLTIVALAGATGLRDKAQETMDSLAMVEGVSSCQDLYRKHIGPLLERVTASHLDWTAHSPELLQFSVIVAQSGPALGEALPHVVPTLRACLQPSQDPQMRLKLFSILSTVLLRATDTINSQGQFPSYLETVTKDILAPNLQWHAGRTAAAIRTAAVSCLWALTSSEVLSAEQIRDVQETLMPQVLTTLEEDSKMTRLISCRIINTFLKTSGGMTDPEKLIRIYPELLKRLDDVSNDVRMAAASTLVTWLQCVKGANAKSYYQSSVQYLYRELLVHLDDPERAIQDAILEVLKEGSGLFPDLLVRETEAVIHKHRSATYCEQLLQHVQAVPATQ
# UniProt Q8IXK2: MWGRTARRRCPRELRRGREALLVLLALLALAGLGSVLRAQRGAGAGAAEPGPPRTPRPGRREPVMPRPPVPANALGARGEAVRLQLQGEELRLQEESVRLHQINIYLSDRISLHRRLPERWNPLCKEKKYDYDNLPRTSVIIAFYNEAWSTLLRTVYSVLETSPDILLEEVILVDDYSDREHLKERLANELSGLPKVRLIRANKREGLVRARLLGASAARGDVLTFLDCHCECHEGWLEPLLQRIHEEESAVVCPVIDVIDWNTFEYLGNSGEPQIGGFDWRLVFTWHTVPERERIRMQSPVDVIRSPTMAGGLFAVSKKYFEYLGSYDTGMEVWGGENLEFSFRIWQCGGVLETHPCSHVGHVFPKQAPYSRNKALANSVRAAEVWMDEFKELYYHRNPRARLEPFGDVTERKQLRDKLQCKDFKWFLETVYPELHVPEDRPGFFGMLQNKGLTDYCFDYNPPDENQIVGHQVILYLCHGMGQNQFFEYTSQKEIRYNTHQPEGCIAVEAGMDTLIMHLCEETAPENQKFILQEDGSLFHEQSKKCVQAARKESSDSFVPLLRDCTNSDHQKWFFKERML
# UniProt Q8TCT9: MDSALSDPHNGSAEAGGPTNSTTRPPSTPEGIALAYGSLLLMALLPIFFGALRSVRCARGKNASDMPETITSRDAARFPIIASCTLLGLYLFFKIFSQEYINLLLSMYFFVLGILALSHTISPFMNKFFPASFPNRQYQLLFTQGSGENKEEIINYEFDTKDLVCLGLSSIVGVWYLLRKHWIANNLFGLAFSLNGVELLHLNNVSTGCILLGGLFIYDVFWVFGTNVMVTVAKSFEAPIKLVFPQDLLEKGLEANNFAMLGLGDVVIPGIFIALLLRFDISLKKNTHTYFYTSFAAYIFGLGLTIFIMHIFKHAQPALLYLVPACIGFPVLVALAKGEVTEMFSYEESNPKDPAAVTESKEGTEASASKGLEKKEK
# UniProt Q8NFI3: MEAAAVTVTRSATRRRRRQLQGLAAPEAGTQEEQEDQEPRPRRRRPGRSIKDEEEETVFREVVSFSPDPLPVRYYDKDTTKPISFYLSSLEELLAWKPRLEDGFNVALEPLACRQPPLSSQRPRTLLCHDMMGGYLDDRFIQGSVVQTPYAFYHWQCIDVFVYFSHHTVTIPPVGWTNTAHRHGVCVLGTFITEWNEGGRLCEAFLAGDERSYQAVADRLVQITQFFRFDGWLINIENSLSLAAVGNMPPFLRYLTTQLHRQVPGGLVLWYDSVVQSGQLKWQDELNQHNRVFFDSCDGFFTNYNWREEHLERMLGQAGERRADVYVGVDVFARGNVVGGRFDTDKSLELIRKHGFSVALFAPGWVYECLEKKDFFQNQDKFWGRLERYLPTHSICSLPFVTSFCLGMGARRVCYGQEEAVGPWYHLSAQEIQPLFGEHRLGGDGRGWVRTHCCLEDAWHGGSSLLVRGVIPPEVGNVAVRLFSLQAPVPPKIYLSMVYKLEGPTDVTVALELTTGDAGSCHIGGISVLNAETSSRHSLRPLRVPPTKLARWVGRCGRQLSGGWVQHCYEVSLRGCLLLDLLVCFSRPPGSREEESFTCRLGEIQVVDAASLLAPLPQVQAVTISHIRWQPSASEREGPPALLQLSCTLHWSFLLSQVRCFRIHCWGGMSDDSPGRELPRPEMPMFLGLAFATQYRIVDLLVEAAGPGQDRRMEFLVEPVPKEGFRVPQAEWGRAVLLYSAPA
# UniProt Q8N183: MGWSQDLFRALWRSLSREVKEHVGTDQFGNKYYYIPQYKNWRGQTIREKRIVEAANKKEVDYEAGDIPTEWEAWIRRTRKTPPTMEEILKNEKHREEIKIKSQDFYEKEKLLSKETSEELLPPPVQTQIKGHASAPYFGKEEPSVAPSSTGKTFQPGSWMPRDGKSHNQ
# UniProt Q8NHU6: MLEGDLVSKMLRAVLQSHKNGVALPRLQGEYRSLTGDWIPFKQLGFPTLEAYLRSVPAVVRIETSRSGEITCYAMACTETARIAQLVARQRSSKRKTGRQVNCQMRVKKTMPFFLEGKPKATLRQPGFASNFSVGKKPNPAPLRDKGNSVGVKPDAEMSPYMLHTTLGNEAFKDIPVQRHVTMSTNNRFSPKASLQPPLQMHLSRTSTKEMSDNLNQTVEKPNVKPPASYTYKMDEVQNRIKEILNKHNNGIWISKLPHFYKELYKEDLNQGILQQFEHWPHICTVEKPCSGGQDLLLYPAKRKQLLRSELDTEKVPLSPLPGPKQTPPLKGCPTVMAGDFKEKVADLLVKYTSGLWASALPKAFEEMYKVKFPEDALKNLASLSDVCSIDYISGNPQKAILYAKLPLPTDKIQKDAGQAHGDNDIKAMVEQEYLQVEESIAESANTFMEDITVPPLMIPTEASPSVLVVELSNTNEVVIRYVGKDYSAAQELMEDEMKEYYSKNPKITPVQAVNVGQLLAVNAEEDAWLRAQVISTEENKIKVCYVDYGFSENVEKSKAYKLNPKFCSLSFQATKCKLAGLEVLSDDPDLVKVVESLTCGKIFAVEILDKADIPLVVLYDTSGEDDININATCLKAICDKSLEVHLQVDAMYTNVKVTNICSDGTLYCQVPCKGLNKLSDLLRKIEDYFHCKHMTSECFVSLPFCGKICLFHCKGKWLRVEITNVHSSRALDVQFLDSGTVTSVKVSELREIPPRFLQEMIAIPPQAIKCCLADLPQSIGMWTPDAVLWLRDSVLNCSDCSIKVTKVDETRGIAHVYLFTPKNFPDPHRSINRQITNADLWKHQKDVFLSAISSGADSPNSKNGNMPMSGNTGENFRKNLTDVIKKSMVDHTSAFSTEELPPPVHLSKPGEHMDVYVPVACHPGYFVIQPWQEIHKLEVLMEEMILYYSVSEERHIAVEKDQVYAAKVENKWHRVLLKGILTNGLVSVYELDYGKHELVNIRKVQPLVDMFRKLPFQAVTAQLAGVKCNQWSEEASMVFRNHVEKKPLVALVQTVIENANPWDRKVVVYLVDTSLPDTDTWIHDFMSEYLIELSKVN
# UniProt Q8IY81: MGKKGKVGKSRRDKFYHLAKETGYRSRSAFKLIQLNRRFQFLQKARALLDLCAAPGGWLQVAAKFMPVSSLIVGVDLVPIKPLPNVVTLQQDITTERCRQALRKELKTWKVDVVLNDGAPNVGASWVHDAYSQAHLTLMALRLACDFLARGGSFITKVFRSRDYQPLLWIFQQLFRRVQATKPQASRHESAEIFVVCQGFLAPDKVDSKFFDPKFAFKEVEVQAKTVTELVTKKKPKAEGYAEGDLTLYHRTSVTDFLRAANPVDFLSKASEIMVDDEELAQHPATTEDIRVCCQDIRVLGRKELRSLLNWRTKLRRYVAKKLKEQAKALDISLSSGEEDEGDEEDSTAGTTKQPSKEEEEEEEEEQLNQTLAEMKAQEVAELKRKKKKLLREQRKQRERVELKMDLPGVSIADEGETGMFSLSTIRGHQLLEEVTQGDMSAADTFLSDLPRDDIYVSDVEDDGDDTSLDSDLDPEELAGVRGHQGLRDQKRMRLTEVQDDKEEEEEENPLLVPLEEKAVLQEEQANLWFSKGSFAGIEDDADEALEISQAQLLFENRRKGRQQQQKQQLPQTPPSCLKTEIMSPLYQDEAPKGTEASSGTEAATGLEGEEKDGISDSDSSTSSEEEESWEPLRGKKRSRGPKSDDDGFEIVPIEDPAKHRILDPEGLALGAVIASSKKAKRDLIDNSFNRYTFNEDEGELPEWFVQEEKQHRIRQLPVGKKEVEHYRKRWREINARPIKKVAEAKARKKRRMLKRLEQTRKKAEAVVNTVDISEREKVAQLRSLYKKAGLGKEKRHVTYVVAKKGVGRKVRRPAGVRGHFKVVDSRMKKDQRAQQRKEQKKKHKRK
# UniProt Q8NFH3: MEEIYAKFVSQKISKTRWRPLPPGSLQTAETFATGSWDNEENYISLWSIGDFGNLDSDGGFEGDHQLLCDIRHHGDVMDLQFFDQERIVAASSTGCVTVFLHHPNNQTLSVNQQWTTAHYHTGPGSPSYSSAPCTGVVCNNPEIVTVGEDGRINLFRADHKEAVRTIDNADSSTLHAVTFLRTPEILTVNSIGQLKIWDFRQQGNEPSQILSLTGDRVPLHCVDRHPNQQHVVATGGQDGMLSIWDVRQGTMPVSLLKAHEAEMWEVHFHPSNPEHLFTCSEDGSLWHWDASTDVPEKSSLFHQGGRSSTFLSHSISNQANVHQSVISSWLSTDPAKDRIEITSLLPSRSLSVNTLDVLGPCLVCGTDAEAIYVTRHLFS
# UniProt Q86YS6: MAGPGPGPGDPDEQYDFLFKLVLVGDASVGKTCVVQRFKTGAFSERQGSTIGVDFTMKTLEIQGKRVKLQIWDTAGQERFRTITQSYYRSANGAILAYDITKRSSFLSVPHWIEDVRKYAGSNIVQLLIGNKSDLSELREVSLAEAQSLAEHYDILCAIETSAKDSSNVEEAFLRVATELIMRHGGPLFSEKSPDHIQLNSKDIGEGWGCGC
# UniProt Q8IUX7: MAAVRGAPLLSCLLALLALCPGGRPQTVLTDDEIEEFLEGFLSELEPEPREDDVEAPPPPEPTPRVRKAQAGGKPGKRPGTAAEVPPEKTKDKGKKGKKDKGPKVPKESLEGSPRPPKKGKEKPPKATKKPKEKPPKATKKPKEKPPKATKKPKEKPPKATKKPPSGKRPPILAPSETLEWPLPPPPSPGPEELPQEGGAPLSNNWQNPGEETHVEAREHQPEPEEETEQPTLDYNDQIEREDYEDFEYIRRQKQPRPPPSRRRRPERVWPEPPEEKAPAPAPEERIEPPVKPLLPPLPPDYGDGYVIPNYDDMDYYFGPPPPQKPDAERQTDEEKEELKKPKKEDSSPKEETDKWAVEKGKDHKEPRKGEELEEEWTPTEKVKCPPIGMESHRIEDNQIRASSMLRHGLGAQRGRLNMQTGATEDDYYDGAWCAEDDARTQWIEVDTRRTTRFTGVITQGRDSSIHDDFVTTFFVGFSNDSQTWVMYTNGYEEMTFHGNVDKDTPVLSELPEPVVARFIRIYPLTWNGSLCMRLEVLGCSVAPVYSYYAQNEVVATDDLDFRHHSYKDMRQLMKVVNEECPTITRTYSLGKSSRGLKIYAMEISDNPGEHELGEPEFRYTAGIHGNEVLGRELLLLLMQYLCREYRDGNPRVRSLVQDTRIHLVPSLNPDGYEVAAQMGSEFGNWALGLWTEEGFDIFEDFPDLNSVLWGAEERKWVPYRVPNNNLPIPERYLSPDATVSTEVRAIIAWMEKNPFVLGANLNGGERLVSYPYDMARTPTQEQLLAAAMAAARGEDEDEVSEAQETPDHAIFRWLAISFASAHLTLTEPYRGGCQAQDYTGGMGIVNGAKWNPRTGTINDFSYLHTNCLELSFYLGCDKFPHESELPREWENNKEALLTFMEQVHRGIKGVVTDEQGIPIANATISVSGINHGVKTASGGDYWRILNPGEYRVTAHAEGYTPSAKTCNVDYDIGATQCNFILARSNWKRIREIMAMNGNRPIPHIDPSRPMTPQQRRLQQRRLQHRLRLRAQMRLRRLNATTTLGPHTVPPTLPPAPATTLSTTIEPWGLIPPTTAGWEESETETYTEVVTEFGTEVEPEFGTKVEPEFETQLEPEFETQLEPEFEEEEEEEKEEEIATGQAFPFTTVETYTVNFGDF
# UniProt Q8N5K1: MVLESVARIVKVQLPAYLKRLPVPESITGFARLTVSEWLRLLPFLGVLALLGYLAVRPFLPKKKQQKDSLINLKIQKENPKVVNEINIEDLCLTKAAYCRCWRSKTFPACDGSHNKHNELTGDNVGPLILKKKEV
# ± gives the standard deviation of the averaged measurements. Some of the results follow.
# Compound: Nc1nc2c(ncn2[C@@H]2O[C@H](COP(=O)(O)OP(=O)(O)OP(=O)(O)O)[C@@H](O)[C@H]2O)c(=O)[nH]1 [guanosine triphosphate]
# Assay: NP40-soluble protein abundance relative to vehicle (solubility fold change) (ratio); higher = more soluble protein in presence of GTP
# Details: concentration: 2mM
# Method in brief: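 In three independent experiments, Jurkat crude lysate made by Dounce homogenisation was treated for 10 min at room temperature and then 3 min at 37 °C with eight concentrations ranging from 0.1 to 10 mM. It was then solubilised with 0.8% NP40 plus benzonase for 60 min at 4 °C and ultracentrifuged. The supernatant was TMT-labelled for LC-MS/MS, and each value is the fold change against the detergent-processed vehicle for the same replicate, using vsn-normalised intensities.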
row,Target,NP40-soluble protein abundance
1,UniProt Q86Y56,0.978 ± 0.035
2,UniProt Q86X53 and related entries,0.946 ± 0.1
3,UniProt Q8ND04 and related entries,1.14 ± 0.051
4,GALNT12 (UniProt Q8IXK2),0.99 ± 0.1
5,UniProt Q8TDZ2 and related entries,0.9475 ± 0.0091
6,UniProt Q8N122 and related entries,0.987 ± 0.09
7,UniProt Q8N5U6 and related entries,1.06 ± 0.012
8,UniProt Q8TCT9 and related entries,0.919 ± 0.015
9,UniProt Q8N766 and related entries,0.964 ± 0.12
10,UniProt Q8TD16 and related entries,0.954 ± 0.054
11,UniProt Q8NFI3 and related entries,0.993 ± 0.15
12,TTC5 (UniProt Q8N0Z6),0.949 ± 0.056
13,NDUFAF2 (UniProt Q8N183),0.975 ± 0.039
14,UniProt Q8TEX9 and related entries,0.999 ± 0.059
15,DCUN1D3 (UniProt Q8IWE4),0.951 ± 0.1
16,UniProt Q8NHU6 and related entries,1.11 ± 0.1
17,UniProt Q8IXI2 and related entries,0.972 ± 0.065
18,FTSJ3 (UniProt Q8IY81),1.05 ± 0.045
19,PNPT1 (UniProt Q8TCS8),1.01 ± 0.042
20,ZADH2 (UniProt Q8N4Q0),0.963 ± 0.056
21,UniProt Q86YP4 and related entries,1.11 ± 0.064
22,NUP43 (UniProt Q8NFH3),1.05 ± 0.099
23,RAB43 (UniProt Q86YS6),0.929 ± 0.032
24,UniProt Q8IUX7,1.19 ± 0.11
25,INTS1 (UniProt Q8N201),1.34 ± 0.25
26,CISD2 (UniProt Q8N5K1),0.955 ± 0.079

# Individual results from above.
# NP40-soluble protein abundance with UniProt Q8TEX9 and related entries reads 0.999 ± 0.059
# NP40-soluble protein abundance with UniProt Q86YP4 and related entries reads 1.11 ± 0.064
